# Results taken from PubChem BioAssay AID2551 (National Center for Advancing Translational Sciences (NCATS), 2010).
# Chains of the proteins cited; added tags and fusions are not shown. Lines headed by an entry give the natural chain unless they say otherwise; changes in a name come on top.
# UniProt P51450: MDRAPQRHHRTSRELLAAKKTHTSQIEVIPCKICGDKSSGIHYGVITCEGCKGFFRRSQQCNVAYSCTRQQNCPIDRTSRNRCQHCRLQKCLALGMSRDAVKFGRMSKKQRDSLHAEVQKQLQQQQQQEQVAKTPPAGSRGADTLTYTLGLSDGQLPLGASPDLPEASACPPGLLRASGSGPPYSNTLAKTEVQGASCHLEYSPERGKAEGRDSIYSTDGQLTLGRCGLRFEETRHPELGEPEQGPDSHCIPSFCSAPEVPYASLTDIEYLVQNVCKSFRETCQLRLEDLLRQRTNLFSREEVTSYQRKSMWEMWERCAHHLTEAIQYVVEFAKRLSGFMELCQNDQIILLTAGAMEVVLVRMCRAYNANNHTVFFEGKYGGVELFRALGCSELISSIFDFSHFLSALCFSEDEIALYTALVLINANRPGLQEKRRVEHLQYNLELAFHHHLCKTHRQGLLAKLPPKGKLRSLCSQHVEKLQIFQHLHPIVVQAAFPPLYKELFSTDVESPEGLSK
# Several values for one entry are separate records, joined by “and”; a condition that tells them apart may be missing. Identical values can stand only once. Among all 310,000 compounds or so, about 17,000 (5.5%) were called active. Inconclusive means that the source gave no clear call. Such entries were picked first, then a sample of the others. Calls follow the shape of the dose curve; as a rule, active = well fitted inhibition curve with a large enough effect; inconclusive = small, poorly fitted or top-dose-only effect, or effect the other way; inactive = no such curve, though single readings can be large or run the other way. Potencies of inconclusive entries are doubtful fits and often do not repeat.
# Target: Nuclear receptor ROR-gamma (Mus musculus) (UniProt P51450)
# Test: qHTS for inhibitors of ROR gamma transcriptional activity; also: nearly all actives have a fitted effect of over 60% in size
# Details: Drosophila S2 Gal4-RORgamma UAS-luciferase reporter, 20 h; activity change, negative = inhibition: at 53.6 µM (top of the series)
# In short: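 Read-out: Photinus luciferase luminescence; inhibitors lower reporter signal. Insect Schneider cells with Gal4-ROR gamma fusion under metallothionein promoter, UAS reporter; 700 uM final copper sulfate induction, 20 hr, ambient temperature.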
# % is scaled to controls: 0 for no effect and ±100 for the full control effect; potency is read from the fitted curve at half-maximal effect.
Structure (SMILES),Potency,"activity change, negative = inhibition"
CCCCOP(=O)(OCCCC)C(Nc1ccccc1)c1ccc2c(c1)OCO2 (stereo not drawn),"inconclusive: 15.8 µM [activator, single point]",–
CCCNC(=O)NC(=O)COC(=O)c1cccc(NS(=O)(=O)c2ccc(F)c(F)c2)c1,"inconclusive: 3.98 µM [activator, full curve]",–
CCOC(=O)c1cncc(C#CCO)c1,–,inactive: 1.23%
O=C(c1cnc2n(c1=O)CCS2)N1CCN(C(c2ccccc2)c2ccc(Cl)cc2)CC1 (stereo not drawn),"inconclusive: 17.8 µM [inhibitor, single point]",–
Cc1ccc(NC(=S)NCCc2c[nH]c3ccccc23)c(C)c1,active: 7.94 µM,–
CCCc1cc(C(=O)Nc2sc3c(c2C#N)CCC3)no1,"inconclusive: 35.5 µM [inhibitor, single point]",–
Cc1ccc(NC(=O)C[n+]2cc(-c3ccccc3)n3c2CCC3)c(C)c1,–,inactive: -4.25%
CC(C(=O)NCCC1=CCCCC1)N1C(=O)c2ccccc2C1=O (stereo not drawn),"inconclusive: 35.5 µM [activator, single point]",–
Cc1cc(Br)ccc1OCC(=O)N(Cc1nc(-c2ccccc2)no1)C(C)C,"inconclusive: 8.91 µM [activator, partial curve]",–
COc1ccc(C(CCN(Cc2ccc(OC)c(OC)c2)C(C)=O)c2ccccc2)cc1 (stereo not drawn),"inconclusive: 12.6 µM [activator, partial curve]",–
S=c1[nH]nc(Nc2ccccc2)s1,"inconclusive: 11.2 µM [inhibitor, partial curve, poor fit]",–
CCCC1=C(C(=O)OCC)C(/C=C/c2ccccc2)n2ncnc2N1 (stereo not drawn),active: 20 µM,–
Cc1ccc2c(c1)C1CN(C)CCC1N2C(=O)COc1ccc(N(C)C(=O)c2ccccc2)cc1 (stereo not drawn),–,inactive: 37.1%
COCC(=O)N1CCC2(CC1)CN(c1ccc(-c3ccccc3)cc1)C2,"inconclusive: 20 µM [activator, single point]",–
Cc1cc(C2(c3ccc(O)c(C)c3)C(=O)Nc3ccccc32)ccc1O,–,inactive: -20.9%
Cc1cc(C)cc(NC(=O)c2cccc(NC(=O)C3C4CC5OC(=O)C3C5C4)c2)c1 (stereo not drawn),"inconclusive: 25.1 µM [activator, single point]",–
Cc1[nH]n(-c2ccc(Cl)cc2)c(=O)c1N=Nc1cccnc1,"inconclusive: 5.62 µM [inhibitor, single point]",–
COc1ccc(-c2nc(CN3CCN(C(=O)c4ccco4)CC3)c(C)o2)c(OC)c1C,"inconclusive: 12.6 µM [activator, single point]",–
Cc1ccn2cc(-c3cccc(NS(C)(=O)=O)c3)nc2c1,–,inactive: -19.7%
CCOC(=O)c1c(N)sc2c1CCC(CC)C2 (stereo not drawn),"inconclusive: 11.2 µM [activator, partial curve]",–
COC(=O)c1ccc(C(NC(=O)OCc2ccccc2)/C(=C/[C@@H](C)C(=O)NCc2nc3ccccc3n2C)c2cccnc2)cc1 (stereo partly drawn),–,inactive: 42.8%
COc1cccc(-n2sc3c(c2=S)-c2cc(OC)ccc2NC3(C)C)c1,"inconclusive: 12.6 µM [inhibitor, single point]",–
CC(O)C(N)C(=O)O (stereo not drawn),–,inactive: 0.347% [at 10 µM]

Structure (SMILES),Potency,"activity change, negative = inhibition"
CCN(CC)S(=O)(=O)c1ccc2nc(COC(=O)c3n[nH]c4ccccc34)[nH]c2c1,"inconclusive: 35.5 µM [inhibitor, single point]",–
Cc1ccc(NC(=O)CCCc2ccccc2)nc1,"inconclusive: 0.501 µM [activator, full curve, poor fit]",–
COc1cccc(C(C(=O)NC2CCCCC2)N(C(=O)Cc2cccs2)c2ccc(-n3cnnn3)c(OC)c2)c1 (stereo not drawn),–,inactive: 8.46%
CCc1ccccc1NS(=O)(=O)c1ccc2[nH]cc(C(=O)NC3CCCC3)c(=O)c2c1,"inconclusive: 11.2 µM [activator, partial curve]",–
CCOc1ccc(S(=O)(=O)NCc2ccccn2)cc1NC(=O)c1ccccc1F,"inconclusive: 10 µM [inhibitor, partial curve]",–
CCOC(=O)C1CCN(C(=O)/C=C/c2ccc(OC)cc2)CC1,"inconclusive: 11.2 µM [inhibitor, single point]",–
CCN(CC)c1ccc(NC2=C(Cl)C(=O)c3ccccc3C2=O)cc1,"inconclusive: 35.5 µM [inhibitor, single point]",–
C/C(=N\NC(=S)Nc1cccc(C)c1)c1ccco1,"inconclusive: 31.6 µM [activator, single point]",–
O=C(c1cc(Cl)ccc1F)N1CCCC(Nc2ccc3c(c2)OCCO3)C1 (stereo not drawn),–,inactive: 4.79%
C/C(N)=C(/C#N)C(=O)COC(=O)c1cc(-c2cccc(Br)c2)nc2ccccc12,"inconclusive: 25.1 µM [activator, single point]",–
COc1ccc(C2/C=C\CN(C(=O)Nc3ccc(C(F)(F)F)cc3)CC(=O)N2Cc2ccc(F)cc2)cc1 (stereo not drawn),"inactive and inconclusive: 7.08 µM [activator, partial curve]",–
CCn1cnc2cc(NCc3ccncc3)ccc21,–,inactive: 22.5%
O=C(Cc1ccccc1)Nc1cccc(N2CCCC2)c1,"inconclusive: 14.1 µM [activator, partial curve]",–
O=C(NCc1ccccc1)c1c[nH]c2cc3c(cc2c1=O)OCCO3,"inconclusive: 0.355 µM [activator, partial curve]",–
Cc1cc(C)c(O)c(-c2n[nH]c3c2C(c2cccc(O)c2)N(Cc2ccco2)C3=O)c1 (stereo not drawn),"inconclusive: 20 µM [inhibitor, single point]",–
O=C1OCc2ccc(NC(=O)c3ccccc3C(=O)O)cc21,–,inactive: -14.9%
Cc1cc(=O)n(-c2ccc3ccccc3n2)[nH]1,"inconclusive: 22.4 µM [inhibitor, single point]",–
Cc1ccc(S(=O)(=O)N(C)C)cc1NC(=O)CSc1ncc(C(F)(F)F)cc1Cl,"inconclusive: 14.1 µM [activator, single point]",–
COc1ccc(OC)c(-c2csc(NC(=O)CSc3ccccc3)n2)c1,–,inactive: -28.4%
COc1ccc(Br)cc1CN(C)CC(=O)Nc1cccc(S(N)(=O)=O)c1,–,inactive: -0.0825%
Cc1[nH]c2ccccc2c1CCC(N)=O,"inconclusive: 10 µM [inhibitor, single point]",–
CCOC(=O)CC(=O)CSc1nc(-c2ccccc2)cc(-c2ccc(Cl)cc2)c1C#N,"inconclusive: 3.16 µM [activator, single point]",–
Cc1onc(-c2ccccc2Cl)c1C(=O)Nc1ccc(F)c(F)c1,–,inactive: -5.33%

Structure (SMILES),Potency,"activity change, negative = inhibition"
CCOC(=O)C1(O)CC(C)=NN1C(=O)c1cccc(Br)c1 (stereo not drawn),"inconclusive: 22.4 µM [inhibitor, single point]",–
CCC(C)NC(=O)c1c(N)n(/N=C/c2cccnc2)c2nc3ccccc3nc12 (stereo not drawn),–,inactive: -19.9% [at 10 µM]
Cn1c(CN2CCCC(C(=O)c3ccc4c(c3)OCO4)C2)nc2ccccc21 (stereo not drawn),"inconclusive: 0.141 µM [activator, full curve, poor fit]",–
CCc1nnc(NC(=O)CSc2nc(C)nc3c2c(=O)n(C)c(=O)n3C)s1,–,inactive: 31.5%
O=C(CC1CCS(=O)(=O)C1)Nc1ccc[nH]c1=O (stereo not drawn),"inconclusive: 35.5 µM [inhibitor, single point]",–
COc1ccc(C(=O)Nc2ccccc2C(=O)Nc2cc(C)ccn2)cc1,"inconclusive: 35.5 µM [inhibitor, single point]",–
CCOC(=O)C1CCN(S(=O)(=O)c2ccc(CC)cc2)CC1,"inconclusive: 14.1 µM [activator, single point]",–
CCN(Cc1cnn(C)c1)C(=O)c1ccc(OC2CCN(S(=O)(=O)N(C)C)CC2)cc1,–,inactive: 7.29%
O=C(CN1C(=O)c2ccccc2S1(=O)=O)c1ccc2c(c1)OCCCO2,active: 0.282 µM,–
O=[N+]([O-])c1cc([N+](=O)[O-])c2nonc2c1Nc1ccccc1O,–,inactive: -17.6%
COc1ccc(/C=N/NC(=O)c2cccc(OC(F)(F)C(F)F)c2)c(OC)c1OC,"inconclusive: 35.5 µM [inhibitor, single point]",–
Cc1cccc(NC(=S)NC(C)C(c2cccs2)N2CCN(C)CC2)c1C (stereo not drawn),"inconclusive: 22.4 µM [inhibitor, single point]",–
Cc1cccc(C2CC(c3ccccc3)Nc3ncnn32)c1 (stereo not drawn),"inconclusive: 22.4 µM [inhibitor, single point]",–
COc1ccc(/C(O)=C2/C(=O)C(=O)N(CCN3CCOCC3)C2c2ccccn2)cc1 (stereo not drawn),"inconclusive: 2.82 µM [activator, full curve]",–
Cc1ccc(S(=O)(=O)N(C)c2ccc(OCC(=O)Nc3nc4ccccc4s3)cc2)cc1,"inconclusive: 11.2 µM [activator, partial curve]",–
CC(=O)Oc1ccc2c(=O)c(N3C(=O)c4ccccc4C3=O)c(C)oc2c1,"inconclusive: 35.5 µM [activator, single point]",–
O=C(Cn1ncc(Cl)c(Cl)c1=O)c1ccc(Cl)cc1,"inconclusive: 1.78 µM [activator, partial curve]",–
CCCOC(=O)c1ccc(NC(=O)c2nc3nc(C)cc(C)n3n2)cc1,"inconclusive: 25.1 µM [inhibitor, single point]",–
NC(=O)C1CCN(C2=C(NS(=O)(=O)c3ccccc3)C(=O)c3ccccc3C2=O)CC1,"inconclusive: 15.8 µM [inhibitor, single point]",–
CCO[C@H]1OC(C(=O)N2CCN(Cc3ccccc3)CC2)=C[C@@H](c2cn(C(C)=O)c3ccccc23)[C@@H]1CCCO,"inconclusive: 14.1 µM [activator, single point]",–
COC(=O)c1cccc(C(=O)N2CCC(CCC(=O)NCc3ccc(F)cc3)CC2)c1,–,inactive: 7.81%
CCCN1CCC(N2CCN(c3ccc([N+](=O)[O-])cc3)CC2)CC1,"inconclusive: 12.6 µM [inhibitor, single point]",–
